The values that follow come from patent US8961933B2, “Process for the preparation of aqueous solutions of hyperpolarized molecules” (Bracco Imaging S.p.A., priority 2008, dated 2015).

Data set [1] in a line: Phase-transfer extraction of the hyperpolarized product into water: 13C signal enhancement and amount transferred. The class given is physicochemical.
A short description of data set [2]: Hyperpolarization test: 13C NMR signal enhancement after para-hydrogenation (PHIP). The note with it: for 13C signal enhancement after para-hydrogenation and field cycling: acetone-d6, 14 T, 298 K.

As to `O=C(O)CCC(=O)O` [succinic acid], in data set [1] (maleic anhydride not 13C enriched, CDCl3/acetone-d6 6:1, 0.25 M NaOH in D2O, signal at 174.65 ppm), the “13C signal enhancement after field cycling, hydrolysis and phase extraction” value is recorded as “about 30 times”.

On to `C[Si](C)(C)OC(=O)/C=C\C(=O)O[Si](C)(C)C` [D], for which, in data set [2], the “13C signal enhancement after para-hydrogenation and field cycling” value was “about 700 times”. On to `COCCOCCOC(=O)/C=C\C(=O)OCCOCCOC` [B], for which the “13C signal enhancement after para-hydrogenation and field cycling” value in data set [2] was “about 250 times”. Also, the “13C signal enhancement recorded immediately after parahydrogenation” value in data set [2] (acetone-d6, para-H2 52% enriched, before field cycling) is 1500 times. Besides, the “13C signal enhancement after field cycling and extraction in water” value in data set [1] (hydrogenation in CDCl3/acetone-d6 (6:1), extraction into D2O, 14 T) came out at 100 times.
